In paper PMC5698439:
No constants are given. Whether binding was seen depends on the method and setting. In cells and extracts the contact can be indirect. Some entries that bind do so weakly or less than the wild type. Tags and fused reporters may be left off the sequences shown.

Amino acid sequences for entries named in this document (tags omitted).
UniProt P49023: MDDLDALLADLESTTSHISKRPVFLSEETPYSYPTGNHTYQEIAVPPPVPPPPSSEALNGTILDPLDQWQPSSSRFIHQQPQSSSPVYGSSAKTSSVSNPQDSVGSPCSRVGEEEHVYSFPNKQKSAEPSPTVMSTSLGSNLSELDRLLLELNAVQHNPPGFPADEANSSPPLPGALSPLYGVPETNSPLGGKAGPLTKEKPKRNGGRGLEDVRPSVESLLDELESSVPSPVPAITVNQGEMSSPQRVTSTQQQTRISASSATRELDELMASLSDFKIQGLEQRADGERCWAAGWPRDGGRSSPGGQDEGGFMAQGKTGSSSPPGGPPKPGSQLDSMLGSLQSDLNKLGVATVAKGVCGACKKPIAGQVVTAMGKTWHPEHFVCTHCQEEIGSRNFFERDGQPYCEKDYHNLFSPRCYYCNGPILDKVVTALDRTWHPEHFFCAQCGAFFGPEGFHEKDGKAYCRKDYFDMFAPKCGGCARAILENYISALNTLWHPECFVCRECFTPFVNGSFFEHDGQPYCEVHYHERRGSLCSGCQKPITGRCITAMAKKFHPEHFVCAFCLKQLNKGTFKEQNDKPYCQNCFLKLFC
UniProt P18760: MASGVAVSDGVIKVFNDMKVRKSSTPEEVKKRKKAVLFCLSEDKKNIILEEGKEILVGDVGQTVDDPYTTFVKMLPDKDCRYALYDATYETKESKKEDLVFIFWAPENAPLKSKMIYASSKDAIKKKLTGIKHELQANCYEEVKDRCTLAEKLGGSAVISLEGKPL

Target: T1, V5-tagged CORO2B (mouse) (UniProt Q8BH44)
T1 sequence: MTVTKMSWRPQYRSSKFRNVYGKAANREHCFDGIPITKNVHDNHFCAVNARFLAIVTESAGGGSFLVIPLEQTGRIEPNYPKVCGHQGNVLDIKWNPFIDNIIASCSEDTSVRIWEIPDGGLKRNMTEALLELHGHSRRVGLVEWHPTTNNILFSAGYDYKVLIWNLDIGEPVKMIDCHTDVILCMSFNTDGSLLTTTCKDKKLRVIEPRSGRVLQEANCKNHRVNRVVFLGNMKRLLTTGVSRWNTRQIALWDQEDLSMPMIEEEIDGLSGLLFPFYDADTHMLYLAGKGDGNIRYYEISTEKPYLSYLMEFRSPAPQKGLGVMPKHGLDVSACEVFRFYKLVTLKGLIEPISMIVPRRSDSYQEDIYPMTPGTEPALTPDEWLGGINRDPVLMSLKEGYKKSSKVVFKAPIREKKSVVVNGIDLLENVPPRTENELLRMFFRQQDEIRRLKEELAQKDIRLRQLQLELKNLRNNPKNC
Experiment: co-IP; HEK293T cells transfected with the indicated constructs, 24 h; lysis in 1% Triton X-100 buffer (50 mM NaCl, 50 mM NaF, 15 mM Na4P2O7, 1 mM EDTA, pH 7.4); anti-V5 antibody 12 h at 4 °C, protein G-Sepharose beads, 5 washes; western blot

binding	Substance
no binding	PAXILLIN (from UniProt P49023 1-591)
binds	CFL1 (from UniProt P18760 1-166)
